Test results from PubChem BioAssay AID504467 (National Center for Advancing Translational Sciences (NCATS), 2011).
The campaign covered roughly 330,000 compounds. About 7,700 (2.3%) were called active. Inconclusive results, whose numbers are uncertain, are shown with a selection of clear calls. Calls follow the shape of the dose curve; as a rule, active = well fitted inhibition curve with a large enough effect; inconclusive = small, poorly fitted or top-dose-only effect, or effect the other way; inactive = flat fitted curve, though single readings scatter. Potencies beside an inconclusive call are fits to weak or partial responses and may not hold up.

assay: qHTS screen for small molecules that inhibit ELG1-dependent DNA repair in human embryonic kidney (HEK293T) cells expressing luciferase-tagged ELG1; details: HEK293T ELG1-luciferase reporter, luminescence, 16 h, DNA damage induced by 5-fluorouridine; activity change, negative = inhibition: at 46.1 µM (top of the series); also: nearly all actives have a fitted effect of over 55% in size
Description: NIH Molecular Libraries Probe Production Network [MLPCN] NIH Chemical Genomics Center [NCGC] MLPCN Grant: 1 R03 MH092164-01 Assay Provider: Kyungjae Myung, NHGRI, NIH Keywords: MLPCN, qHTS, NCGC, genotoxicity, cancer Assay Overview: Cancer cells divide rapidly compared to normal cells in the body. During cell division, cancer cells need to duplicate their genome by DNA replication. The failure of genome duplication leads to cancer cells' death. Therefore, inhibitors of DNA replication could specifically kill cancer cells. Based on this concept, many chemotherapeutic agents were developed and have been used to treat cancer patients. However, there are a limited number of agents available in the clinical setting, and some of those that do exist have low efficacy and severe side effects. Therefore, if we can find the compounds that effectively block DNA replication either by directly damaging DNA or by inhibiting other cellular mechanisms, the options for cancer treatment will be broadened. With this in mind, we developed a quantitative high-throughput ELG1-luciferase reporter gene assay. Small molecules that specifically block ELG1 function in response to DNA damage can be identified by monitoring the suppression of luciferase activity. Since ELG1 defines a pathway for repairing DNA damage, agents blocking ELG1 function can be used to sensitize cancer cells to chemotherapeutic agents whose mechanism of action involves the induction of DNA damage.
Assay Protocol Summary: For genotoxicity screening, 2,000 cells in 4 uL/well were dispensed into white, solid-bottom 1536-well plates using a solenoid-based dispenser. Following transfer of 1 uL 5-Fluorouridine and 23 nL compound or DMSO vehicle by a pin tool, the plates were incubated 16 hr at 37 °C and 5% CO2. 5 ul ONE-Glo (Promega) was then added to each plate and following a 30 min incubation at room temperature, luciferase activity was quantified on a ViewLux CCD-based plate reader.
% is scaled to controls: 0 for no effect and ±100 for the full control effect; potency is read from the fitted curve at half-maximal effect.

Structure (SMILES)	Potency	activity change, negative = inhibition
CC(C)c1ccc(OCc2ccc(C(=O)N(C)C)o2)cc1	inconclusive: 7.3 µM [activator, partial curve]	–
O=C(CSc1cnc2ccccc2n1)c1ccc(F)cc1	inconclusive: 2.06 µM [activator, partial curve]	–
COc1ccc(C)cc1Nc1n[n+](-c2ccccc2)c(-c2ccc(N(C)C)cc2)s1	inactive	–
Cc1cc(C)nc(N/N=C/c2ccc(Cl)cc2)n1	inactive	–
CCN1CCN(Cc2ccc(NC(=O)c3ccc(C)c(NC(=O)c4cc(-c5ccc(Br)cc5)n[nH]4)c3)cc2C(F)(F)F)CC1	inconclusive: 23.1 µM [inhibitor, single point]	–
CCn1cc(C(=O)N2CCn3c(nc4ccccc43)C2)c(=O)c2ccc(C)nc21	inconclusive: 16.4 µM [inhibitor, partial curve, poor fit]	–
O=C(Nc1ccc(OCC(=O)N2CCOCC2)cc1)c1ccccc1Cl	inconclusive: 14.6 µM [activator, partial curve]	–
O=C(Nc1ccc2c(c1)CCCN2C(=O)c1cccs1)c1ccccc1	inconclusive: 29.1 µM [inhibitor, single point]	–
Cc1ccc(Cn2c(Sc3ncccn3)nc3c2c(=O)[nH]c(=O)n3C)cc1	inconclusive: 29.1 µM [inhibitor, partial curve, poor fit]	–
O=C(Nc1cccc(Cl)c1)c1ccccc1	inconclusive: 20.6 µM [activator, partial curve]	–
O=C(NCc1ccc(F)cc1)C1CCCN(S(=O)(=O)c2cccc3nsnc23)C1 (stereo not drawn)	inconclusive: 25.9 µM [inhibitor, partial curve, poor fit]	–
COc1ccccc1NC(=S)NCC1CCCCC1	inactive	–
Cc1cccc(-c2nc(CNC(=O)c3ccco3)cs2)c1	inconclusive: 18.3 µM [activator, partial curve]	–
O=C(NCc1ccccc1)c1cccc(Br)n1	inconclusive: 20.6 µM [activator, partial curve, poor fit]	–
O=C(NCc1cccnc1)C1CCC(c2ccc(Cl)cc2)CC1 (stereo not drawn)	active: 9.2 µM	–
COC(=O)c1ccc(NC(=S)NCCC2=CCCCC2)cc1	inactive	–
CCOCCCn1c(SCC(=O)Nc2ccc(C(N)=O)cc2)nc2ccccc2c1=O	inconclusive: 23.1 µM [activator, single point]	–
CCOc1ccc(C2C(C(=O)c3ccco3)=C(O)C(=O)N2CCN2CCOCC2)cc1 (stereo not drawn)	inconclusive: 14.6 µM [activator, partial curve]	–
CCCCN(C(=O)c1cc(-c2ccncc2)nc2ccccc12)c1c(N)n(CC(C)C)c(=O)[nH]c1=O	inactive	–
O=C(Nc1cccc(S(=O)(=O)N2CCCC2)c1)c1cccnc1	inactive	–
O=C(NCCCc1ccccc1)c1ccc(Br)o1	inconclusive: 29.1 µM [activator, single point]	–
COc1ccccc1NC(=O)COc1ccc(C(=O)NC2CCCc3ccccc32)cc1OC (stereo not drawn)	inactive	–

Complete entries, quoted from the list.
O=C(NCc1ccccc1)c1cccc(Br)n1 is listed with Potency: inconclusive: 20.6 µM [activator, partial curve, poor fit]
CCN1CCN(Cc2ccc(NC(=O)c3ccc(C)c(NC(=O)c4cc(-c5ccc(Br)cc5)n[nH]4)c3)cc2C(F)(F)F)CC1 is listed with Potency: inconclusive: 23.1 µM [inhibitor, single point]
CCCCN(C(=O)c1cc(-c2ccncc2)nc2ccccc12)c1c(N)n(CC(C)C)c(=O)[nH]c1=O is listed with Potency: inactive

The listing continues.

Structure (SMILES)	Potency	activity change, negative = inhibition
CCOc1ccccc1CNC(=O)c1ccc2nc(N3CCOCC3)sc2c1	inconclusive: 25.9 µM [inhibitor, single point]	–
CC(C)C(=O)Nc1nnc(CSCc2ccccc2F)s1	–	inconclusive: 26.8% [activator]
COc1ccc(C(=O)c2c3ccc(C(F)(F)F)cc3[n+]([O-])n2CCCN)cc1	inconclusive: 8.91 µM [activator, single point]	–
Cc1c(C(=O)C(=O)N2c3ccc(F)cc3CCC2C)c2ccccc2n1C (stereo not drawn)	inactive	–
CCC1CCc2c([nH]c3ccccc3c2=O)O1 (stereo not drawn)	inconclusive: 16.4 µM [activator, partial curve, poor fit]	–
Cn1c(SCC(=O)NCC2CCCO2)nc2scc(-c3ccccc3)c2c1=O (stereo not drawn)	inconclusive: 4.61 µM [inhibitor, partial curve, poor fit]	–
Cc1cc(N/N=C/c2ccncc2)nc2ccccc12	inconclusive: 10.3 µM [activator, partial curve]	–
CC(=O)c1cccc(NC(=S)N2CCN(c3ccccn3)CC2)c1	inconclusive: 29.1 µM [inhibitor, single point]	–
Cc1ccccc1NC(=O)Cc1nc(COC(=O)c2ccc(O)cc2O)cs1	inconclusive: 14.6 µM [inhibitor, partial curve, poor fit]	–
COc1cc(-c2nnc(-c3ccncc3)o2)ccc1OCc1ccccc1	inconclusive: 23.1 µM [inhibitor, partial curve, poor fit]	–
Oc1ccc(Cl)cc1/C=N/c1nc2ccccc2[nH]1	inconclusive: 29.1 µM [activator, partial curve, poor fit]	–
C/C(=C\C(=O)c1ccccc1)Nc1cccc(O)c1	inconclusive: 4.11 µM [activator, full curve]	–
COC(=O)c1ccc(-c2noc(CN(C)CC3CCCCO3)n2)cc1 (stereo not drawn)	inconclusive: 3.66 µM [activator, full curve, poor fit]	–
O=[N+]([O-])c1c(NCCCO)cc(SCc2ccco2)c2nonc12	inactive	–
Cc1ccc(C2(C)NC(=O)N(CC(=O)N3CCN(S(=O)(=O)c4ccc(Cl)s4)CC3)C2=O)cc1 (stereo not drawn)	inconclusive: 20.6 µM [inhibitor, single point]	–
COc1cccc(N2CCN(C(=O)c3ccc(CS(=O)Cc4ccccc4Cl)o3)CC2)c1 (stereo not drawn)	inconclusive: 29.1 µM [inhibitor, single point]	–
O=C(N/N=C/C=C/c1ccccc1)c1ccccc1Br	inconclusive: 20.6 µM [activator, partial curve]	–
CCC(NC(=O)c1cccc(Cn2cc([N+](=O)[O-])cn2)c1)c1ccc(C(C)C)cc1 (stereo not drawn)	inconclusive: 29.1 µM [inhibitor, single point]	–
O=C(c1cc(-c2ccccn2)nc2ccc(Br)cc12)N1CCc2ccccc2C1	inactive	–
O=C(Nc1ccc2ccccc2n1)Nc1ccccc1F	inconclusive: 4.61 µM [activator, full curve, poor fit]	–
CCCCCN(C(=O)CSc1n[nH]c(-c2ccc(C)cc2)n1)c1c(N)n(CCCC)c(=O)[nH]c1=O	inconclusive: 2.91 µM [activator, single point]	–
